Test results reported in paper PMC6511875.
Results are given in words; binding and its absence hold for the method and conditions named. In cells and extracts the contact can be indirect. Some entries that bind do so weakly or less than the wild type. For some assays here: Sequences can lack the tags named with a protein. Each block holds one molecule with its values, some of them ahead of it.

By UniProt entry, the sequences of proteins in these tests, tags left out. Where a name states a change or a piece, a line headed by the entry shows the natural chain unless it says otherwise.
UniProt P49841: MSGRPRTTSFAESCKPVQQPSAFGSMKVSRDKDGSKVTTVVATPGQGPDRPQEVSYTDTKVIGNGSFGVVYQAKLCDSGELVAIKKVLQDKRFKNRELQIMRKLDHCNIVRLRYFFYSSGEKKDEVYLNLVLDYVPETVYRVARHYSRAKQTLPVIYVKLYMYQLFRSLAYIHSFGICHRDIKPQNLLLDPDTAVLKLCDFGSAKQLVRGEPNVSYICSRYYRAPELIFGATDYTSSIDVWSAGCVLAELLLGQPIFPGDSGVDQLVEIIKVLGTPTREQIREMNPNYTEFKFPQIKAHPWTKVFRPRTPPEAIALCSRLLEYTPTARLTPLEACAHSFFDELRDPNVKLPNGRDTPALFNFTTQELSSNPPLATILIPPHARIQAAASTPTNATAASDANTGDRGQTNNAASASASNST
UniProt Q969H0: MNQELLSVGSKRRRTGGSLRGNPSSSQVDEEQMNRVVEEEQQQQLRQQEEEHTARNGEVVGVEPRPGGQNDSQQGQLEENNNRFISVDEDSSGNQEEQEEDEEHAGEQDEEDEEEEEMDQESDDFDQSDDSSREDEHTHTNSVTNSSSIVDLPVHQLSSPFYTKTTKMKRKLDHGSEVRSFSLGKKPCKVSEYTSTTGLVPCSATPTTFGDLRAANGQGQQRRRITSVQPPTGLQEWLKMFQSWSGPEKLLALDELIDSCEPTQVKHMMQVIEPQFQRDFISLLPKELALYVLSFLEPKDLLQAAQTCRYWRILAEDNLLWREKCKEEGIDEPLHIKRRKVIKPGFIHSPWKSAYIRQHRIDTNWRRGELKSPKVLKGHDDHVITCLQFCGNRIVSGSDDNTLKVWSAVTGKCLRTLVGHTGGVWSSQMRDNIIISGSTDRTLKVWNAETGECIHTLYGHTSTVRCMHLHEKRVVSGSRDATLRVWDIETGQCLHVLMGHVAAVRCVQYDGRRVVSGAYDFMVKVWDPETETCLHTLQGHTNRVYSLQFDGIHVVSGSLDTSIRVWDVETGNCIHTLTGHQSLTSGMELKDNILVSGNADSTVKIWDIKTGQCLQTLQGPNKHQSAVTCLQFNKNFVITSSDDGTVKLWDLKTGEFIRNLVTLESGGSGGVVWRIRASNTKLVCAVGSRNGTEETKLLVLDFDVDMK

How the values were obtained:
[1] = biological target: T1, FLAG-IRF1 (mouse), wild type (mouse) (UniProt P15314); assay: co-IP; HEK293 cells overexpressing FLAG-IRF1 and GSK3β-HA; 1 mg lysate; IP with anti-HA or anti-FLAG, overnight at 4°C; washes in TNE buffer (10 mM Tris pH 7.4, 1 mM EDTA, 200 mM NaCl); also after DRB (1 μM/1 h), which reduced the co-IP
T1 sequence: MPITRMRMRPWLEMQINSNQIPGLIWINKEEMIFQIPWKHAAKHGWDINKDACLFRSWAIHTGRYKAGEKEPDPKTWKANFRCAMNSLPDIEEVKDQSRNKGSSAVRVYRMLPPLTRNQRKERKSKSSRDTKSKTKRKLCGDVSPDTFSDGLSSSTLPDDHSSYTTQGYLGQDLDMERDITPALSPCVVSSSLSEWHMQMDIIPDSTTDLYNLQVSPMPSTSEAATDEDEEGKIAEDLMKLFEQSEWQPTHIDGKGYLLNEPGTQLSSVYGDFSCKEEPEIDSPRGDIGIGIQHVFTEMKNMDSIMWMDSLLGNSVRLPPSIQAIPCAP

FLAG-IRF1 T181A (mouse) = biological target: T2, FLAG-IRF1 T181A (mouse) (UniProt P15314); assay: co-IP; HEK293 cells expressing HA-Fbxw7α (or ΔWD40) and FLAG-IRF1 (WT or mutants), with or without GSK3β-HA; MG132 (10 μM) for 6 h prior to lysis; IP with anti-HA or anti-FLAG, western blot
T2 sequence: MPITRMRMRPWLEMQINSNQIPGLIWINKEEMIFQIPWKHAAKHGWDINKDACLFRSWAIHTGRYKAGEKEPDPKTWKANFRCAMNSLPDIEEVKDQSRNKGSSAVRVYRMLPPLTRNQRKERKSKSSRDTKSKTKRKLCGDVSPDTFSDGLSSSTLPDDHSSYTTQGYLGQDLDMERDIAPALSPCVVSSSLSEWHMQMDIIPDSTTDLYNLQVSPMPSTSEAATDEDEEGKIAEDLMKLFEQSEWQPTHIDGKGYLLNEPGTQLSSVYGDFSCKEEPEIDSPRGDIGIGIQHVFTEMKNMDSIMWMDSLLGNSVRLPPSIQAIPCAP

[2] = biological target: T1, FLAG-IRF1 (mouse), wild type (mouse); assay: as above
FLAG-IRF1 T181D (mouse) = biological target: T3, FLAG-IRF1 T181D (mouse) (UniProt P15314); assay: as above
T3 sequence: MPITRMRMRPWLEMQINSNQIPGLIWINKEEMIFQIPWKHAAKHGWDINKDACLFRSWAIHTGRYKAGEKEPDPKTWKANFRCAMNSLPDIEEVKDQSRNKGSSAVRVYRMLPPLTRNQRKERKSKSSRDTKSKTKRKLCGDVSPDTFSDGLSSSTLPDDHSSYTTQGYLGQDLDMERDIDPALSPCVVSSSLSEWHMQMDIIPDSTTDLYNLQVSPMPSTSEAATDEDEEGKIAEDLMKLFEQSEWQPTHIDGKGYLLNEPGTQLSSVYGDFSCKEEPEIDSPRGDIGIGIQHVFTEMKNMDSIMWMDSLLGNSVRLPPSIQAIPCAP

[3] = biological target: T4, endogenous human IRF1 (human (endogenous in H3396)) (UniProt P10914); assay: co-IP; endogenous proteins in H3396 extracts; IP with IgG, anti-IRF1 or anti-GSK3β; cells pre-treated with MG132 (10 μM) or DMSO for 3 hr, basal or IFNγ-induced; more robustly detected after MG132
T4 sequence: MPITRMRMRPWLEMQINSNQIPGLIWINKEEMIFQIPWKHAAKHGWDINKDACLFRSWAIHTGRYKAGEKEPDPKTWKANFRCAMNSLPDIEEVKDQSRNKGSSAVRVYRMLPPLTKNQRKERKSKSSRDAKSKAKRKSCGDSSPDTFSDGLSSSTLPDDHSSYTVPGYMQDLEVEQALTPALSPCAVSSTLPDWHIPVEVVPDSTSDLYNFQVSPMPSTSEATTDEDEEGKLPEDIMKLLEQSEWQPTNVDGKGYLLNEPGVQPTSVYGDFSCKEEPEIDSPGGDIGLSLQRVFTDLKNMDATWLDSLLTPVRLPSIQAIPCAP

murine GST-IRF1 (mouse) = biological target: T5, murine GST-IRF1 (mouse) (UniProt P15314); assay: pull-down; GST-IRF1 (1 μg) on GSH beads in NETN buffer (20 mM Tris-HCl pH 8, 100 mM NaCl, 1 mM EDTA, 0.5% NP40); in vitro translated 35S-labelled protein added, overnight at 4°C; 3 washes; autoradiography; only the target purified
T5 sequence: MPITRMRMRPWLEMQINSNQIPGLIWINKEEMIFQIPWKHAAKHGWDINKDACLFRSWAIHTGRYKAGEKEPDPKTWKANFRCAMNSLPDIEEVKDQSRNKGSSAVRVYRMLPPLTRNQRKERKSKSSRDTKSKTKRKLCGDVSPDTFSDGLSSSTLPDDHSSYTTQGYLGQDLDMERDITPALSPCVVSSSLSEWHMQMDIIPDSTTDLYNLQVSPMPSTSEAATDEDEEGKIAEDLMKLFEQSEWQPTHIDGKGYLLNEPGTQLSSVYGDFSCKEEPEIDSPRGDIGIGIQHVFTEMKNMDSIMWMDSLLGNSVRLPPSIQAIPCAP

[4] = biological target: endogenous GSK3β (human (endogenous in H3396)) (UniProt P49841); assay: co-IP; endogenous proteins in H3396 extracts; IP with IgG, anti-IRF1 or anti-GSK3β; cells pre-treated with MG132 (10 μM) or DMSO for 3 hr, basal or IFNγ-induced; more robustly detected after MG132
GSK3β-HA, wild type = GSK3β-HA, wild type (UniProt P49841); assay: co-IP; HEK293 cells overexpressing FLAG-IRF1 and GSK3β-HA; 1 mg lysate; IP with anti-HA or anti-FLAG, overnight at 4°C; washes in TNE buffer (10 mM Tris pH 7.4, 1 mM EDTA, 200 mM NaCl); also after DRB (1 μM/1 h), which reduced the co-IP
GST-Fbxw7α = GST-Fbxw7α (UniProt Q969H0); assay: pull-down; HEK293 lysates expressing GST-Fbxw7 isoforms; NP40 lysis buffer (50 mM Tris pH 7.5, 150 mM NaCl, 0.5% NP40); 0.5 mg lysate with glutathione-sepharose beads, 3 h at 4°C; 3 washes
HA-Fbxw7α = HA-Fbxw7α (UniProt Q969H0); assay: co-IP; HEK293 cells expressing HA-Fbxw7α (or ΔWD40) and FLAG-IRF1 (WT or mutants), with or without GSK3β-HA; MG132 (10 μM) for 6 h prior to lysis; IP with anti-HA or anti-FLAG, western blot

binding [1]: binds
Molecule: GSK3β-HA K85A (kinase inactive) (from UniProt P49841 1-420) (enzyme)

binding [1]: binds
Molecule: GSK3β-HA, wild type (from UniProt P49841 1-420) (enzyme)

binding (FLAG-IRF1 T181A (mouse)): binds | binding [2]: binds | binding (FLAG-IRF1 T181D (mouse)): binds
Molecule: HA-Fbxw7α (from UniProt Q969H0 1-707)

binding [3]: binds
Molecule: endogenous GSK3β (from UniProt P49841 1-420) (enzyme)

binding (murine GST-IRF1 (mouse)): binds
Molecule: in vitro transcribed/translated 35S-methionine-labelled GSK3β-HA (from UniProt P49841 1-420) (enzyme)

binding [4]: binds
B1: endogenous human IRF1 (protein, UniProt P10914 1-325)
chain: MPITRMRMRPWLEMQINSNQIPGLIWINKEEMIFQIPWKHAAKHGWDINKDACLFRSWAIHTGRYKAGEKEPDPKTWKANFRCAMNSLPDIEEVKDQSRNKGSSAVRVYRMLPPLTKNQRKERKSKSSRDAKSKAKRKSCGDSSPDTFSDGLSSSTLPDDHSSYTVPGYMQDLEVEQALTPALSPCAVSSTLPDWHIPVEVVPDSTSDLYNFQVSPMPSTSEATTDEDEEGKLPEDIMKLLEQSEWQPTNVDGKGYLLNEPGVQPTSVYGDFSCKEEPEIDSPGGDIGLSLQRVFTDLKNMDATWLDSLLTPVRLPSIQAIPCAP

binding (GSK3β-HA, wild type): binds | binding (GST-Fbxw7α): binds | binding (HA-Fbxw7α): binds
B2: FLAG-IRF1 (mouse), wild type (protein, UniProt P15314 1-329)
chain: MPITRMRMRPWLEMQINSNQIPGLIWINKEEMIFQIPWKHAAKHGWDINKDACLFRSWAIHTGRYKAGEKEPDPKTWKANFRCAMNSLPDIEEVKDQSRNKGSSAVRVYRMLPPLTRNQRKERKSKSSRDTKSKTKRKLCGDVSPDTFSDGLSSSTLPDDHSSYTTQGYLGQDLDMERDITPALSPCVVSSSLSEWHMQMDIIPDSTTDLYNLQVSPMPSTSEAATDEDEEGKIAEDLMKLFEQSEWQPTHIDGKGYLLNEPGTQLSSVYGDFSCKEEPEIDSPRGDIGIGIQHVFTEMKNMDSIMWMDSLLGNSVRLPPSIQAIPCAP
